Laboratory results published in patent US9469650B2, “Melampomagnolide B derivatives” (BOARD OF TRUSTEES OF THE UNIVERSITY OF ARKANSAS, priority 2013, dated 2016).
At least one structure is not confirmed: it was looked up by name or label, or the drawing left a doubt. Some entries share one result that the patent states for a list of compounds.

How the values were obtained:
[1] = tested on: panel of 60 human tumor cell lines; experiment: panel of 60 human tumor cell lines, whole panel or sub-panel (single concentration screen, summaries); assay type: cell-based; settings: single concentration of 10^−5 M
[2] = tested on: M14; experiment: panel of 60 human tumor cell lines, growth inhibition (Melanoma)
[3] = tested on: HL-60(TB); settings: Log10 Concentration −6.0

## C=C1C(=O)O[C@H]2[C@H]1CC/C(COC(=O)NCCN1CCCCC1)=C\CC[C@@]1(C)O[C@@H]21 [JVM 2-13]
[1]
  growth inhibition in at least eight human cancer cell lines from the panel: more than 60%
[2]
  TGI: a 17E−5 M

## C=C1C(=O)O[C@H]2[C@H]1CC/C(COC(=O)N1CCN(C)CC1)=C\CC[C@@]1(C)O[C@@H]21 [JVM 2-44]
[3]
  Percent Growth: B6%
[1]
  growth inhibition in at least eight human cancer cell lines from the panel: more than 60%

## C=C1C(=O)O[C@H]2[C@H]1CC/C(COC(=O)NCCO)=C\CC[C@@]1(C)O[C@@H]21 [JVM 2-50]
[1]
  growth inhibition in at least eight human cancer cell lines from the panel: more than 60%

## C=C1C(=O)O[C@H]2[C@H]1CC/C(COC(=O)NC)=C\CC[C@@]1(C)O[C@@H]21 [JVM 2-57]
[1]
  growth inhibition in at least eight human cancer cell lines from the panel: more than 60%

## C=C1C(=O)O[C@H]2[C@H]1CC/C(COC(=O)N1CCC(F)(F)CC1)=C\CC[C@@]1(C)O[C@@H]21 [JVM 2-66]
[1]
  growth inhibition in at least eight human cancer cell lines from the panel: more than 60%

## C=C1C(=O)O[C@H]2[C@H]1CC/C(COC(=O)CCC(=O)N1CCC(C)CC1)=C\CC[C@@]1(C)O[C@@H]21 [JVM 2-70]
[1]
  growth inhibition in at least eight human cancer cell lines from the panel: more than 60%
